This is one part of the list.
Each compound was assayed on T1, CTL2-GFP (C. trachomatis L2/434/Bu, GFP-expressing). Settings: bulk GFP, single well; 28.5 h, 10 µM; inhibitor.
T1 construct: L2/434/Bu, GFP-expressing
Parameters: species or system HeLa; Intracellular C. trachomatis growth in HeLa cells, bulk GFP fluorescence relative to DMSO

Row | SMILES | % of control remaining [%]
1 | CC(C)N(Cc1cnn(C)c1)C(=O)c1cc(C2CC2)nc2ccccc12 [CBK305325] | 124.318
2 | O=c1[nH]c2ccccc2n1CCCN1CCC[C@@H]1CN1CCCC1 [CBK137111T] | 133.574
3 | Cc1noc(C)c1C(=O)N1CCCCCC1c1nn(C)cc1Cl (stereo not drawn) [CBK285106] | 102.46
4 | CC(C)c1c(O)c2ccccc2[nH]c1=O [CBK159988] | 119.072
5 | O=C(c1cccs1)N(Cc1ccco1)Cc1cc2ccccc2nc1O [CBK269602] | 97.3705
6 | CCc1ccc(CNC(=O)Cn2nnc(-c3ccc(CNCC4CC4)cc3)n2)cc1 [CBK161032C] | 150.865
7 | C#CCNC(=O)C1CCCN(c2nc3ccccc3n2C)C1 (stereo not drawn) [CBK282336] | 97.9002
8 | O=C1NC2(CCc3ccccc31)CCN(C(=O)CCn1cccn1)C2 (stereo not drawn) [CBK283352] | 127.33
9 | O=c1[nH]c2ccccc2c(O)c1C1=Nc2ccccc2S(=O)(=O)N1 [CBK019929] | 100
10 | O[C@@H]1CN(Cc2ccccc2F)CC[C@H]1N1CCCC1 [CBK282934] | 119.024
11 | COCCN(Cc1cc2cccc(C)c2nc1O)S(C)(=O)=O [CBK269395] | 105.068
12 | CC(NC(=O)c1ccc(-n2cccc2)cc1)c1ccccn1 (stereo not drawn) [CBK296619] | 107.121
13 | O=C(Nc1cccc(-c2noc(CCc3ccccc3)n2)c1)c1cccs1 [CBK270225] | 128.165
14 | O=C(Cn1ccc2ccc(F)cc21)Nc1cccc(-n2cnnc2)c1 [CBK282570] | 82.9524
15 | N#C/C(C(=O)Nc1ccccc1)=C(/O)c1nn(-c2ccccc2)c2c1CSc1ccccc1-2 [CBK017685] | 100
16 | C(=N\Nc1ccc2nn(-c3ccccc3)nc2c1)/c1c[nH]c2ccccc12 [CBK261064] | 104.247
17 | COC(=O)c1ccccc1NC(=O)Cn1cncc1-c1ccc([N+](=O)[O-])cc1 [CBK266741] | 136.014
18 | CCCCC1CCC(C(=O)O)CC1 (stereo not drawn) [CBK122493] | 121.978
19 | CC(=O)c1cccc(NC(=O)C2CCCN(S(=O)(=O)c3ccc(Cl)cc3)C2)c1 (stereo not drawn) [CBK266847] | 152.856
20 | O=C1C(=CNCc2ccco2)C(=O)c2ccccc21 [CBK262688] | 101.041
21 | O=[N+]([O-])c1ccccc1S(=O)(=O)N1CCN(Cc2cccnc2)CC1 [CBK264168G] | 67.4999
22 | Cc1cccc(N(C)S(=O)(=O)c2ccc(N3CCCNCC3)c3ccccc23)c1C [CBK004430C] | 51.2431
23 | CCCn1c(SC(C)C(=O)c2cc(C)n(-c3ccc(Cl)cc3)c2C)n[nH]c1=O (stereo not drawn) [CBK295595] | 88.9219
24 | C[C@H]1[C@@H]2[C@@H](O)C([C@H](C)C(=O)N3CCCC3)CC[C@@]2(C)CC[C@@H]1NC(=O)C1CC1 (stereo partly drawn) [CBK289447] | 137.323
25 | CC(=O)Nc1ccc(CNC(=O)CN(C)Cc2nc(C3CC3)no2)cc1 [CBK306695] | 89.4475
26 | N#Cc1ccc(-c2cnc(N)c(-c3ccc(NC(=O)CCN4CCCCC4)cc3)n2)cc1 [CBK116418] | 97.969

Row | SMILES | % of control remaining [%]
27 | COc1cccc(C(=O)N2CCN(C(=O)c3cccc(F)c3)CC2)c1OC [CBK263316] | 123.68
28 | NCCCCCCNc1ncnc2c1ncn2[C@H]1C[C@@H](O)[C@@H](CO)O1 [CBK201260] | 101.761
29 | Cc1cc(O)nc(C(C)N2CCOC(C(C)(C)C)C2)n1 (stereo not drawn) [CBK304097] | 101.966
30 | Cc1cc(Oc2ccc(N(C)C)cc2)cc(C2CCCNC2)n1 (stereo not drawn) [CBK283442] | 144.533
31 | COC(=O)CCN(Cc1nnc(C2CC2)o1)C(C)C [CBK304470] | 158.194
32 | c1ccc(-n2cc(-c3cncn3CCCN3CCCCC3)cn2)cc1 [CBK281465] | 129.317
33 | CC(=O)N1CCc2c([nH]c3c(C)cccc23)C12CCN(CCOc1ccccc1)C2 (stereo not drawn) [CBK039646] | 100
34 | COc1cccc(NC(=O)N[C@H]2CCN3C(=O)[C@@H](Cc4ccccc4)NC(=O)[C@H]23)c1 [CBK289230] | 107.343
35 | CS(=O)(=O)c1ccc(-c2cccc(COC3CCN(C(=O)Cc4c[nH]cn4)CC3)c2)cc1 [CBK149515] | 98.5779
36 | O=C(NCCCN1CCOCC1)c1ccncc1 [CBK264561F] | 100
37 | COc1ccc(CN2CCN(c3nccnc3NS(C)(=O)=O)CC2)cc1 [CBK084273] | 97.3332
38 | Cn1cc(CN2CCC(CNc3ccccn3)C2)cn1 (stereo not drawn) [CBK304705] | 119.609
39 | COCCn1c(CN2CCCC(C)C2)nc2c1c(=O)n(C)c(=O)n2C (stereo not drawn) [CBK306063] | 134.319
40 | O=[N+]([O-])c1ccc(S(=O)(=O)CC(CN2CCCC2)N2CCCC2)cc1 (stereo not drawn) [CBK266991] | 91.4825
41 | CC(=O)c1ccc(-c2nc(-c3ccc(Cl)cc3)cnc2N)cc1 [CBK064097] | 126.283
42 | Cc1c(C(=O)O)sc(S(=O)(=O)N2CCN(C(=O)c3ccc(C(C)(C)C)cc3)CC2)c1C(=O)O [CBK297119] | 156.228
43 | Cc1cc(C)cc(N(C(C)C(=O)Nc2ccc(C(F)(F)F)cc2)S(C)(=O)=O)c1 (stereo not drawn) [CBK268834] | 115.594
44 | COc1ccc(Cl)cc1Nc1nc(N)nc(CC(=O)CSc2ccc(C)cc2)n1 [CBK265200] | 135.702
45 | CC(Oc1ccc(C#N)cc1)C(=O)NCC(C)(C)N1CCOCC1 (stereo not drawn) [CBK304066] | 114.453
46 | CCN1CCCC1CNC(=O)c1cc(Br)cnc1N1CCOCC1 (stereo not drawn) [CBK076213] | 100
47 | CC1CCc2nn(CCNC(=O)Cc3ccc(F)cc3)c(=O)cc2C1 (stereo not drawn) [CBK284485] | 133.005
48 | Cc1c(C(=O)N(C)C2CCNCC2)nnn1-c1ccc2ncccc2c1 [CBK306500C] | 139.08
49 | COc1ccc(CNc2cnc3ccccc3c2)c(O)c1 [CBK293951] | 134.674
50 | C/C(O)=C1/C(=O)N(c2nc3ccccc3s2)N=C1CC(=O)O [CBK265828] | 141.475
51 | CC(NC(=O)Cn1ccnc1-c1ccccc1)c1ccccn1 (stereo not drawn) [CBK281885] | 127.089
52 | O=C1N=C2C=CC=CN2C(=O)C1Cc1ccccc1 (stereo not drawn) [CBK287874] | 99.5988

Taken from above:
% of control remaining [%] with Cc1cc(Oc2ccc(N(C)C)cc2)cc(C2CCCNC2)n1 (stereo not drawn) [CBK283442] reads 144.533
% of control remaining [%] with COc1ccc(CNc2cnc3ccccc3c2)c(O)c1 [CBK293951] reads 134.674
% of control remaining [%] with Cn1cc(CN2CCC(CNc3ccccn3)C2)cn1 (stereo not drawn) [CBK304705] reads 119.609

(listing goes on)

Row | SMILES | % of control remaining [%]
53 | CCCC/C=C/c1cnc2[nH]c(=O)n([C@H](CO)C(C)C)c2n1 [CBK064970] | 148.634
54 | CCCC/C=C/c1cnc2[nH]c(=O)n(C3CCOCC3)c2n1 [CBK064253] | 113.439
55 | O=C(NCc1cccs1)NC1CCCc2c1cnn2CCO (stereo not drawn) [CBK305658] | 125.998
56 | NS(=O)(=O)c1ccc(CCNC(=O)/C=C/c2ccccc2Cl)cc1 [CBK264379] | 138.128
57 | O=C(OCc1ccccc1)Sc1nnc(-c2ccc([N+](=O)[O-])cc2)o1 [CBK264504] | 100
58 | COc1ccc(NC(=O)CC(C(=O)O)N2CCCCC2)cc1 (stereo not drawn) [CBK267115] | 173.122
59 | CC(=O)c1ccc(-c2nccnc2N2CCCC2CO)s1 (stereo not drawn) [CBK037483] | 110.276
60 | Cn1c(C(=O)Nc2ccc(Cn3cncn3)cc2)cc2cc(F)ccc21 [CBK281584] | 112.048
61 | O=C(NCCn1nc(-c2cccs2)oc1=O)C1CCCC1 [CBK282345] | 99.9973
62 | CCNC(=O)Nc1ccc2ccc(-c3ccc(SC)cc3)nc2n1 [CBK070656] | 84.8119
63 | CCNC(=O)Nc1ccc(-c2ccc(S(C)(=O)=O)cc2)c2ccccc12 [CBK083728] | 94.9113
64 | N#C/C(=C\c1cccn1-c1ccc(S(N)(=O)=O)cc1)c1nc2ccccc2[nH]1 [CBK266167] | 101.78
65 | COc1ccc(F)cc1-c1cccc(CC2(C(=O)NCCc3ccccc3)CCOCC2)c1 [CBK285562] | 122.453
66 | NC(=O)c1c(NC(=O)c2ccc3ncsc3c2)sc2c1CCCC2 [CBK287369] | 113.86
67 | CCc1nccn1CC(=O)N(C)C1CCCN(Cc2ccccc2F)C1 (stereo not drawn) [CBK306928] | 129.036
68 | COc1ccc(C(=O)N2CCC3(CCCN(C(=O)c4ccc5occc5c4)C3)C2)cc1OC (stereo not drawn) [CBK131665] | 105.368
69 | Cc1ccc(/C=C/C(=O)O)cc1S(=O)(=O)N1CCCc2ccccc21 [CBK264425] | 100
70 | O=[N+]([O-])c1ccccc1S(=O)(=O)N1CCN(c2ccnc3cc(Cl)ccc23)CC1 [CBK267271] | 107.828
71 | Cc1cc(C(=O)NC(Cn2ccnc2)c2ccccc2)cc(=O)[nH]1 (stereo not drawn) [CBK306818] | 114.464
72 | COc1ccccc1NC(=O)N1CCC2(CC1)NC(=O)Cc1cc3ccccc3cc12 [CBK047284] | 100.047
73 | CN1CCN(S(=O)(=O)c2ccc3c(c2)oc(=O)c2cc(S(=O)(=O)N4CCN(C)CC4)ccc23)CC1 [CBK267206] | 156.098
74 | Cc1nn(C)c(C)c1CCC(=O)OCc1cc(=O)n2ccccc2n1 [CBK305690] | 115.843
75 | CC(C)(Oc1ccc(Cl)cc1)C(=O)NCCc1ccc(S(N)(=O)=O)cc1 [CBK265628] | 102.507
76 | O=C(NCCc1c[nH]c2ccccc12)C(=O)Nc1ccncc1 [CBK287754] | 106.876
77 | O=C(O)c1cccc(NC(=S)NC(=O)c2ccc(-c3ccc(Br)cc3)o2)c1 [CBK265014] | 91.7898
78 | Nc1nc2ccccc2n1/N=C/c1ccc([N+](=O)[O-])cc1 [CBK262239] | 100

An excerpt of these results, in markdown.

| Row | SMILES | % of control remaining [%] |
| --- | --- | --- |
| 25 | CC(=O)Nc1ccc(CNC(=O)CN(C)Cc2nc(C3CC3)no2)cc1 [CBK306695] | 89.4475 |
| 26 | N#Cc1ccc(-c2cnc(N)c(-c3ccc(NC(=O)CCN4CCCCC4)cc3)n2)cc1 [CBK116418] | 97.969 |

Reference: article PMC12040169 (PLOS Biology, 2025)
